Laboratory results: PubChem BioAssay AID743458 (Peter MacCallum Cancer Centre, 2014)
Purpose: 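Find knock-downs that make vorinostat-resistant colon cancer cells sensitive again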 (follow-up of hits). Cell system: human HCT116-VR colon cancer cells made resistant to vorinostat. Reagents: single siRNA or pool against human genes, 25 nM per single siRNA. Duration: about 72 h after transfection, including 24 h of drug. Treatment: vorinostat, 2.5 µM final, for 24 h. Read-out: 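Cell viability by fluorescence and apoptosis by caspase 3/7 luminescence under vorinostat, background-corrected, averaged across two plate copies and given as fold change versus mock transfection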. Scale: viability relative to mock: higher = more living cells than mock; caspase activity relative to mock: higher = more apoptosis than mock. Rule for the call: 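Active means a reduced-viability or caspase-activation class, anything else inactive; classes could only be given to wells that looked healthy when left untreated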.
This is an unselected part of about 1,800 deposited reagents. 732 of them (41%) count as active. 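Calls are per siRNA reagent; a gene was deemed confirmed only if most of its four siRNAs scored.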 The numbers tell different reagents against one gene apart.

Target gene | reagent no. | viability relative to mock | caspase activity relative to mock | viability hit class | caspase hit class | call
SLU7 | 1 | 0.38 | 1.4 | reduced viability | no change | active
SLU7 | 2 | 0.29 | 2.79 | reduced viability | caspase activation | active
SLU7 | 3 | 0.44 | 2.54 | reduced viability | no change | active
SLU7 | 4 | 0.45 | 2.55 | reduced viability | no change | active
ARLN | 1 | 0.96 | 1.06 | no change | no change | inactive
ARLN | 2 | 0.96 | 1.06 | no change | no change | inactive
ARLN | 3 | 0.4 | 0.84 | reduced viability | no change | active
ARLN | 4 | 1.02 | 1.08 | no change | no change | inactive
AP5S1 | 1 | 0.4 | 4.54 | reduced viability | caspase activation | active
AP5S1 | 2 | 1.08 | 1.32 | no change | no change | inactive
AP5S1 | 3 | 0.82 | 3.06 | no change | caspase activation | active
AP5S1 | 4 | 0.84 | 3.16 | no change | caspase activation | active
AVEN | 1 | 0.7 | 1.85 | no change | no change | inactive
AVEN | 2 | 0.86 | 1.31 | no change | no change | inactive
AVEN | 3 | 1.08 | 3.25 | no change | caspase activation | active
AVEN | 4 | 0.8 | 1.08 | no change | no change | inactive
SNRPE | 1 | 0.43 | 0.88 | reduced viability | no change | active
SNRPE | 2 | 0.47 | 1.59 | reduced viability | no change | active
SNRPE | 3 | 0.49 | 1.32 | reduced viability | no change | active
SNRPE | 4 | 0.26 | 1.08 | reduced viability | no change | active

Looked up above.
ARLN #1, caspase hit class = no change
Entry for SNRPE #4 under “call”: active
Entry of SLU7 #4 in “viability relative to mock”: 0.45
Result of ARLN #4 under “call”: inactive
AP5S1 #1, call → active
For “caspase activity relative to mock”, SNRPE #2 shows 1.59

Continued.
Target gene | reagent no. | viability relative to mock | caspase activity relative to mock | viability hit class | caspase hit class | call
NEO1 | 1 | 0.29 | 1.39 | reduced viability | no change | active
NEO1 | 2 | 0.96 | 1.12 | no change | no change | inactive
NEO1 | 3 | 0.94 | 1.32 | no change | no change | inactive
NEO1 | 4 | 1.02 | 1.01 | no change | no change | inactive
ACVR1C | 1 | 0.72 | 2.44 | no change | no change | inactive
ACVR1C | 2 | 0.86 | 0.91 | no change | no change | inactive
ACVR1C | 3 | 0.81 | 4.61 | no change | caspase activation | active
ACVR1C | 4 | 0.98 | 0.96 | no change | no change | inactive
GLYCTK | 1 | 0.98 | 3 | no change | caspase activation | active
GLYCTK | 2 | 0.92 | 0.88 | no change | no change | inactive
GLYCTK | 3 | 0.91 | 1.84 | no change | no change | inactive
GLYCTK | 4 | 0.43 | 2.92 | reduced viability | caspase activation | active
RPA2 | 1 | 0.68 | 2 | no change | no change | inactive
RPA2 | 2 | 0.74 | 4.07 | no change | caspase activation | active
RPA2 | 3 | 0.58 | 4.23 | no change | caspase activation | active
RPA2 | 4 | 0.68 | 2.05 | no change | no change | inactive
NOP58 | 1 | 0.54 | 1.8 | reduced viability | no change | active
NOP58 | 2 | 0.62 | 0.96 | no change | no change | inactive
NOP58 | 3 | 0.98 | 0.98 | no change | no change | inactive
NOP58 | 4 | 0.76 | 0.88 | no change | no change | inactive
RNF128 | 1 | 0.94 | 1.76 | no change | no change | inactive
RNF128 | 2 | 0.84 | 1.19 | no change | no change | inactive
RNF128 | 3 | 1 | 1.07 | no change | no change | inactive
RNF128 | 4 | 1 | 0.96 | no change | no change | inactive
TRIM49B | 1 | 0.6 | 2.25 | no change | no change | inactive
TRIM49B | 2 | 0.94 | 1.07 | no change | no change | inactive
TRIM49B | 3 | 0.78 | 0.98 | no change | no change | inactive
TRIM49B | 4 | 0.87 | 1.42 | no change | no change | inactive
ATP6V1B2 | 1 | 0.94 | 1.2 | no change | no change | inactive
ATP6V1B2 | 2 | 0.33 | 4.65 | reduced viability | caspase activation | active
ATP6V1B2 | 3 | 0.94 | 0.97 | no change | no change | inactive
ATP6V1B2 | 4 | 0.54 | 2.62 | reduced viability | caspase activation | active
CNOT1 | 1 | 0.92 | 7.06 | no change | caspase activation | active
CNOT1 | 2 | 0.83 | 5.25 | no change | caspase activation | active
CNOT1 | 3 | 0.7 | 6.48 | no change | caspase activation | active
CNOT1 | 4 | 0.78 | 8.43 | no change | caspase activation | active
CNOT1 | 5 | 0.77 | 7.63 | no change | caspase activation | active
